# Reference: the supplement of paper PMC8728848
# The list shows a part of the results.
# B1: GS13814A-bth-462-26-462 (Bacteroides thetaiotaomicron) (protein)
# chain: DDRDNLMVNDQIGLLHSTYTETEIFRGMDTPYQLFVIKSGKGKQETEVSISVDETVLQSYNTDNGTSIQLLPSDCYTILQPALRLNDSDYRKAFDIKWNADRLSDLLSTGKEYGLPIQMSVVQNFISADDERLKTIIVPTIKEPYLQMDVPGMSPVTDFMPTFGDLNERELFVKIRTNYSNDEDISFQIEVDPQLVIDYNTAHGTAYKMLPESSFTVDNKGVILTGMKETFIKIKYHKKGLIPEEGTYLFGDYVLPLRITSVSKYGISPDAASKLYTVKFQPDPIDKKGWSVIDFNNCCTQDGGWYLNMGWGVESLIDNNPGTQWLCRWDVKEPLPYYFVFDMGKEYTLFRFGFANPVAPAAHVWAGTSKAGYVEASIDNENWVKLKDWTSPKIGEPNVNMDVPATQARYIRFVITDTYPTYDGLRVSLGEVYAWGM
# What was measured:
# Assay in all cases: glycan array binding signal (z-score within array); higher = stronger binding
# Conditions in all cases: glycan notation: IUPAC condensed, linker removed
# [1] = target: Neu5Ac(a2-6)Gal(b1-4)GlcNAc(b1-2)Man(a1-3)[Neu5Ac(a2-3)Gal(b1-4)GlcNAc(b1-2)Man(a1-6)]Man(b1-4)GlcNAc(b1-4)GlcNAc
# Outline: (§1)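 Negative Z-scores can be read as non-binding. The Z-score is calculated within each array and then averaged across arrays of one protein sequence at different concentrations or buffers and across linkers. Arrays, 3228 in all, were curated from the Consortium for Functional Glycomics database and kept only where the protein sequence was available.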
# [2] = target: Neu5Ac(a2-6)Gal(b1-4)GlcNAc(b1-2)Man(a1-3)[Neu5Ac(a2-6)Gal(b1-4)GlcNAc(b1-2)Man(a1-6)]Man(b1-4)GlcNAc(b1-4)GlcNAc
# Outline: as §1
# [3] = target: Neu5Ac(a2-6)Gal(b1-4)GlcNAc(b1-2)Man(a1-3)[Neu5Ac(a2-6)Gal(b1-4)GlcNAc(b1-2)Man(a1-6)]Man(b1-4)GlcNAc(b1-4)[Fuc(a1-6)]GlcNAc
# Outline: as §1
# [4] = target: Neu5Ac(a2-6)Gal(b1-4)GlcNAc(b1-2)Man(a1-6)Man(b1-4)GlcNAc(b1-4)GlcNAc
# Outline: as §1
# [5] = target: Neu5Ac(a2-6)Gal(b1-4)GlcNAc(b1-2)Man(a1-6)[Gal(b1-4)GlcNAc(b1-2)Man(a1-3)]Man(b1-4)GlcNAc(b1-4)GlcNAc
# Outline: as §1
# [6] = target: Neu5Ac(a2-6)Gal(b1-4)GlcNAc(b1-2)Man(a1-6)[GlcNAc(b1-2)Man(a1-3)]Man(b1-4)GlcNAc(b1-4)GlcNAc
# Outline: as §1
# [7] = target: Neu5Ac(a2-6)Gal(b1-4)GlcNAc(b1-2)Man(a1-6)[Man(a1-3)]Man(b1-4)GlcNAc(b1-4)GlcNAc
# Outline: as §1
# [8] = target: Neu5Ac(a2-6)Gal(b1-4)GlcNAc(b1-2)[Neu5Ac(a2-6)Gal(b1-4)GlcNAc(b1-4)]Man(a1-3)[GlcNAc(b1-4)][Neu5Ac(a2-6)Gal(b1-4)GlcNAc(b1-2)[Neu5Ac(a2-6)Gal(b1-4)GlcNAc(b1-6)]Man(a1-6)]Man(b1-4)GlcNAc(b1-4)GlcNAc
# Outline: as §1
# [9] = target: Neu5Ac(a2-6)Gal(b1-4)GlcNAc(b1-2)[Neu5Ac(a2-6)Gal(b1-4)GlcNAc(b1-4)]Man(a1-3)[GlcNAc(b1-4)][Neu5Ac(a2-6)Gal(b1-4)GlcNAc(b1-4)Man(a1-6)]Man(b1-4)GlcNAc(b1-4)GlcNAc
# Outline: as §1
# [10] = target: Neu5Ac(a2-6)Gal(b1-4)GlcNAc(b1-2)[Neu5Ac(a2-6)Gal(b1-4)GlcNAc(b1-6)]Man(a1-6)[Neu5Ac(a2-6)Gal(b1-4)GlcNAc(b1-2)Man(a1-3)][GlcNAc(b1-4)]Man(b1-4)GlcNAc(b1-4)GlcNAc
# Outline: as §1
# [11] = target: Neu5Ac(a2-6)Gal(b1-4)GlcNAc(b1-3)Gal(b1-3)GlcNAc
# Outline: as §1
# [12] = target: Neu5Ac(a2-6)Gal(b1-4)GlcNAc(b1-3)Gal(b1-4)GlcNAc
# Outline: as §1
# [13] = target: Neu5Ac(a2-6)Gal(b1-4)GlcNAc(b1-3)Gal(b1-4)GlcNAc(b1-2)Man(a1-3)[Neu5Ac(a2-6)Gal(b1-4)GlcNAc(b1-3)Gal(b1-4)GlcNAc(b1-2)Man(a1-6)]GalNAc
# Outline: as §1
# [14] = target: Neu5Ac(a2-6)Gal(b1-4)GlcNAc(b1-3)Gal(b1-4)GlcNAc(b1-3)Gal(b1-4)GlcNAc
# Outline: as §1
# [15] = target: Neu5Ac(a2-6)Gal(b1-4)GlcNAc(b1-3)Gal(b1-4)GlcNAc(b1-3)Gal(b1-4)GlcNAc(b1-2)Man(a1-3)[Neu5Ac(a2-6)Gal(b1-4)GlcNAc(b1-3)Gal(b1-4)GlcNAc(b1-3)Gal(b1-4)GlcNAc(b1-2)Man(a1-6)]GalNAc
# Outline: as §1
# [16] = target: Neu5Ac(a2-6)Gal(b1-4)GlcNAc(b1-3)Gal(b1-4)GlcNAc(b1-3)GalNAc
# Outline: as §1
# [17] = target: Neu5Ac(a2-6)Gal(b1-4)GlcNAc(b1-3)Gal(b1-4)GlcNAc(b1-3)[Neu5Ac(a2-6)Gal(b1-4)GlcNAc(b1-3)Gal(b1-4)GlcNAc(b1-6)]GalNAc
# Outline: as §1
# [18] = target: Neu5Ac(a2-6)Gal(b1-4)GlcNAc(b1-3)Gal(b1-4)GlcNAc(b1-6)[Gal(b1-3)]GalNAc
# Outline: as §1
# [19] = target: Neu5Ac(a2-6)Gal(b1-4)GlcNAc(b1-3)Gal(b1-4)[Fuc(a1-3)]GlcNAc(b1-3)Gal(b1-4)[Fuc(a1-3)]GlcNAc
# Outline: as §1
# [20] = target: Neu5Ac(a2-6)Gal(b1-4)GlcNAc(b1-3)GalNAc
# Outline: as §1
# [21] = target: Neu5Ac(a2-6)Gal(b1-4)GlcNAc(b1-3)[Neu5Ac(a2-6)Gal(b1-4)GlcNAc(b1-6)]GalNAc
# Outline: as §1
# [22] = target: Neu5Ac(a2-6)Gal(b1-4)GlcNAc(b1-6)GalNAc
# Outline: as §1
# [23] = target: Neu5Ac(a2-6)Gal(b1-4)GlcNAc(b1-6)[Gal(b1-3)GlcNAc(b1-3)]Gal(b1-4)Glc
# Outline: as §1
# [24] = target: Neu5Ac(a2-6)Gal(b1-4)GlcNAc(b1-6)[Gal(b1-3)]GalNAc
# Outline: as §1
# [25] = target: Neu5Ac(a2-6)Gal(b1-4)GlcNAc6S
# Outline: as §1
# Neu5Ac(a2-6)GalNAc = target: Neu5Ac(a2-6)GalNAc
# Outline: as §1
# [26] = target: Neu5Ac(a2-6)GalNAc(b1-4)GlcNAc
# Outline: as §1
# [27] = target: Neu5Ac(a2-6)GalNAc(b1-4)GlcNAc6S
# Outline: as §1
# [28] = target: Neu5Ac(a2-6)GlcNAc(b1-4)GlcNAc
# Outline: as §1
# [29] = target: Neu5Ac(a2-6)GlcNAc(b1-4)GlcNAc(b1-4)GlcNAc
# Outline: as §1
binder,measurement,setting,value
B1,glycan array binding signal (z-score),[1],-0.153
same,glycan array binding signal (z-score),[2],-0.189
same,glycan array binding signal (z-score),[3],1.84
same,glycan array binding signal (z-score),[4],-0.709
same,glycan array binding signal (z-score),[5],0.333
same,glycan array binding signal (z-score),[6],-0.713
same,glycan array binding signal (z-score),[7],-1.12
same,glycan array binding signal (z-score),[8],-1.17
same,glycan array binding signal (z-score),[9],0.153
same,glycan array binding signal (z-score),[10],-0.945
same,glycan array binding signal (z-score),[11],-0.896
same,glycan array binding signal (z-score),[12],-0.789
same,glycan array binding signal (z-score),[13],-0.118
same,glycan array binding signal (z-score),[14],0.951
same,glycan array binding signal (z-score),[15],-0.144
same,glycan array binding signal (z-score),[16],-0.183
same,glycan array binding signal (z-score),[17],-1.35
same,glycan array binding signal (z-score),[18],-0.806
same,glycan array binding signal (z-score),[19],-0.215
same,glycan array binding signal (z-score),[20],-0.883
same,glycan array binding signal (z-score),[21],-0.877
same,glycan array binding signal (z-score),[22],-0.162
same,glycan array binding signal (z-score),[23],-0.607
same,glycan array binding signal (z-score),[24],-1.67
same,glycan array binding signal (z-score),[25],-0.329
same,glycan array binding signal (z-score),Neu5Ac(a2-6)GalNAc,-0.493
same,glycan array binding signal (z-score),[26],-0.674
same,glycan array binding signal (z-score),[27],-0.463
same,glycan array binding signal (z-score),[28],-0.915
same,glycan array binding signal (z-score),[29],0.478

# Laid out differently: entries from further up.
binder | measurement | setting | value
B1 | glycan array binding signal (z-score) | [20] | -0.883
same | glycan array binding signal (z-score) | [28] | -0.915
